Measured values reported in the supplement of paper PMC6411743.
± gives the standard deviation of the averaged measurements. The entries are a selection whose mix differs from that of the whole data set.

Protein sequences, listed by entry. Tags and fused reporters are not part of them. Lines headed by an entry give the natural chain unless they say otherwise; changes in a name come on top.
UniProt Q9Y5U2: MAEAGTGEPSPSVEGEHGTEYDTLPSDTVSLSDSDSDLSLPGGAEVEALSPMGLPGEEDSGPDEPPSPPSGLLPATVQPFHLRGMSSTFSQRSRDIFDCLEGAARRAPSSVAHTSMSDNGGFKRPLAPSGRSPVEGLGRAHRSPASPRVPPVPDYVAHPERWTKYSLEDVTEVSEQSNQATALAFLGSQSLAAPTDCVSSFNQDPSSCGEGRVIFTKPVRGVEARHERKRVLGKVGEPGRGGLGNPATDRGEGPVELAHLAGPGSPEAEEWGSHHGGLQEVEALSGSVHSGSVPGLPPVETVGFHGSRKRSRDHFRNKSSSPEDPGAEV
UniProt P43243: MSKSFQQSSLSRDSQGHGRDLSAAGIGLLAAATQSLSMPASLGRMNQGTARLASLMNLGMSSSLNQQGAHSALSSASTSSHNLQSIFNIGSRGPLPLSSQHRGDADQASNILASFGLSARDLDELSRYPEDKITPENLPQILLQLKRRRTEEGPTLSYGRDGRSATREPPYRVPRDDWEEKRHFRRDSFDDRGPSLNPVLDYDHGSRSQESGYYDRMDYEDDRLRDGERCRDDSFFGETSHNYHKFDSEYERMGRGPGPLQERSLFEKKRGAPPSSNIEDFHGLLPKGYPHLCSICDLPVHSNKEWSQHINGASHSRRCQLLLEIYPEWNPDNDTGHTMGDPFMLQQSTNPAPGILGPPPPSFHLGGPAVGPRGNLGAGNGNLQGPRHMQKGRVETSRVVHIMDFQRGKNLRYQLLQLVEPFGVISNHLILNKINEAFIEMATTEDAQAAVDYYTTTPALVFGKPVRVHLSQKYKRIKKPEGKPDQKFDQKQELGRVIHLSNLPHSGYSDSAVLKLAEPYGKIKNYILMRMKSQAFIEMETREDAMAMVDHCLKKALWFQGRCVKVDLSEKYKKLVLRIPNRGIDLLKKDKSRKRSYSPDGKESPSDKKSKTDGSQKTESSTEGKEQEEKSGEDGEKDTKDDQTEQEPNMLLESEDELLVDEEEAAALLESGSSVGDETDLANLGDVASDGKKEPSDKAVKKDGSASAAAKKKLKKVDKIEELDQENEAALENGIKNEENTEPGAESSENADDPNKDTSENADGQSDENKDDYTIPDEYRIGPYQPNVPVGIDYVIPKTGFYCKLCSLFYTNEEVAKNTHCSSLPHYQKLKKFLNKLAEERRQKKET
UniProt Q9UGP4: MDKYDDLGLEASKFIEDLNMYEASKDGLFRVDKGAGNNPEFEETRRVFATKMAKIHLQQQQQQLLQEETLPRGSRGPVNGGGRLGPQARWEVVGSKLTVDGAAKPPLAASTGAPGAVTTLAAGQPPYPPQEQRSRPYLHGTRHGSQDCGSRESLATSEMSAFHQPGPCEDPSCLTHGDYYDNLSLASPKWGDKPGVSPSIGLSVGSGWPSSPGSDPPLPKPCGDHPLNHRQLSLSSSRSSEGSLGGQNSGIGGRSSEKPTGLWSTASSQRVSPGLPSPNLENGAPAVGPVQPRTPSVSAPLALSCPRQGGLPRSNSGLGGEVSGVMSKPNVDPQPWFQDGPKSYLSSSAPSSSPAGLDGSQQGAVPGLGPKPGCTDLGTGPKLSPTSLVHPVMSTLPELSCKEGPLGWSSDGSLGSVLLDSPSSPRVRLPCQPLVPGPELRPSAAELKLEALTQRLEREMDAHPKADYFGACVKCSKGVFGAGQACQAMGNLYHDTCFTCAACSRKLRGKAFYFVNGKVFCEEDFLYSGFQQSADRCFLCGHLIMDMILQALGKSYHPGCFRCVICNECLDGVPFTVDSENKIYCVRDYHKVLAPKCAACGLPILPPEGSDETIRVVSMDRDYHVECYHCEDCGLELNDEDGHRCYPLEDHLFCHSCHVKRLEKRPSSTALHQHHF
UniProt Q8WTS6: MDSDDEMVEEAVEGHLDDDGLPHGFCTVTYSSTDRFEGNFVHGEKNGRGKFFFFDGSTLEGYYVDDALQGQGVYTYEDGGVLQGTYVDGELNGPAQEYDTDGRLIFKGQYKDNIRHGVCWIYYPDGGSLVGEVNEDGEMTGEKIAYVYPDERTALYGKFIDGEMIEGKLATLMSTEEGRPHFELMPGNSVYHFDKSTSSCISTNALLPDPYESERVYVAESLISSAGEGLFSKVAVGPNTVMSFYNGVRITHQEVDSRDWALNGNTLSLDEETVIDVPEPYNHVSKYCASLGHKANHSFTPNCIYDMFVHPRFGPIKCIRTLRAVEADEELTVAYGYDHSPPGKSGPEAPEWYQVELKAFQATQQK
UniProt P01040: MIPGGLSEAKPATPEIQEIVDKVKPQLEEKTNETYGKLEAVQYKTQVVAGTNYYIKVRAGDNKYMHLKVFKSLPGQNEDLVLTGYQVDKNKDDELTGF
UniProt Q9BQ75: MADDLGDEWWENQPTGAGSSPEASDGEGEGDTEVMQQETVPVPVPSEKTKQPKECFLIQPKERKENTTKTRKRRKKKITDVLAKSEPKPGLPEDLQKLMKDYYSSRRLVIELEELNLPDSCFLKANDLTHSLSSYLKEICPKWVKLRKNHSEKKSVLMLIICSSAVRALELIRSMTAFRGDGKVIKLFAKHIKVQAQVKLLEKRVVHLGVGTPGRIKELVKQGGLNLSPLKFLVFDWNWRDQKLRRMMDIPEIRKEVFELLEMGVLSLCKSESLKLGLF
UniProt O43676, whole entry: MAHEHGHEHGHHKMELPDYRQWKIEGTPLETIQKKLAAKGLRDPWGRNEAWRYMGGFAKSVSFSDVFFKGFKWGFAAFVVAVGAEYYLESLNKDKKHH
UniProt Q9NUQ7: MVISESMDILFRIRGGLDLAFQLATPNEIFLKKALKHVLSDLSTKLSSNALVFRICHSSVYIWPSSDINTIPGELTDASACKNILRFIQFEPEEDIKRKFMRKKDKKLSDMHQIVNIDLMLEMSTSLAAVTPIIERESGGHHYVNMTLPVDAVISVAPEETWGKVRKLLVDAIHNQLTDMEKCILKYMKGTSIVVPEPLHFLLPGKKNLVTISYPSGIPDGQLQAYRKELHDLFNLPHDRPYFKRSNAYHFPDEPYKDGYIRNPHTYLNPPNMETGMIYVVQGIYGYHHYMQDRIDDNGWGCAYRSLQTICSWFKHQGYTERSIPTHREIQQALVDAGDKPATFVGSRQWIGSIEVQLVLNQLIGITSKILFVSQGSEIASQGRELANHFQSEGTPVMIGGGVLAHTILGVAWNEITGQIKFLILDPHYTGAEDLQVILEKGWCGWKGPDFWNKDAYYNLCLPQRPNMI
UniProt Q86WP2: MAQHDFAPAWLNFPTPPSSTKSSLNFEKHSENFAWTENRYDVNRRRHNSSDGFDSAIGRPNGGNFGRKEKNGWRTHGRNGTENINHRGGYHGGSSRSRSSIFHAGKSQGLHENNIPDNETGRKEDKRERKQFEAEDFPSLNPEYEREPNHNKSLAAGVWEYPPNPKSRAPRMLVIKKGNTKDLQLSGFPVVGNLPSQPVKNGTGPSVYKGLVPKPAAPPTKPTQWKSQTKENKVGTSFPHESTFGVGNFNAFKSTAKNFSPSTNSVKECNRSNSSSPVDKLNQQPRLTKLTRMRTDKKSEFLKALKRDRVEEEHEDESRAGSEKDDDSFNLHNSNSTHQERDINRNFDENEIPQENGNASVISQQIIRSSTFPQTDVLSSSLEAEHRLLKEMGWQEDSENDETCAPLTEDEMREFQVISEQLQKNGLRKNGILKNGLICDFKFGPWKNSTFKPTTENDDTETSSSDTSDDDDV
UniProt P34913, whole entry: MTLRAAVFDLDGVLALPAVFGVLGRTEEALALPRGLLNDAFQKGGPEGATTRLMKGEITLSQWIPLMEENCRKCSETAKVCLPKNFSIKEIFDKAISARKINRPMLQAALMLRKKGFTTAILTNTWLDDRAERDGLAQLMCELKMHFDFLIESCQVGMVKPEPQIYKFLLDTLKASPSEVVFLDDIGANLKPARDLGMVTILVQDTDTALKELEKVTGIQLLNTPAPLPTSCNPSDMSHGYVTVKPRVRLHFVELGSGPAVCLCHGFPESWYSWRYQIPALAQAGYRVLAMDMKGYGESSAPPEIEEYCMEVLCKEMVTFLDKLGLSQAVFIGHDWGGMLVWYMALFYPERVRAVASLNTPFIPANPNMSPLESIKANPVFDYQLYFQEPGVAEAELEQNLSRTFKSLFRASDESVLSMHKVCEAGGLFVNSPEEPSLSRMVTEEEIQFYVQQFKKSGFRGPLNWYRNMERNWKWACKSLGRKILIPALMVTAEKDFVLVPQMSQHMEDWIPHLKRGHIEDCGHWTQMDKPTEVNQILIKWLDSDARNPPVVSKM
UniProt A6NC98: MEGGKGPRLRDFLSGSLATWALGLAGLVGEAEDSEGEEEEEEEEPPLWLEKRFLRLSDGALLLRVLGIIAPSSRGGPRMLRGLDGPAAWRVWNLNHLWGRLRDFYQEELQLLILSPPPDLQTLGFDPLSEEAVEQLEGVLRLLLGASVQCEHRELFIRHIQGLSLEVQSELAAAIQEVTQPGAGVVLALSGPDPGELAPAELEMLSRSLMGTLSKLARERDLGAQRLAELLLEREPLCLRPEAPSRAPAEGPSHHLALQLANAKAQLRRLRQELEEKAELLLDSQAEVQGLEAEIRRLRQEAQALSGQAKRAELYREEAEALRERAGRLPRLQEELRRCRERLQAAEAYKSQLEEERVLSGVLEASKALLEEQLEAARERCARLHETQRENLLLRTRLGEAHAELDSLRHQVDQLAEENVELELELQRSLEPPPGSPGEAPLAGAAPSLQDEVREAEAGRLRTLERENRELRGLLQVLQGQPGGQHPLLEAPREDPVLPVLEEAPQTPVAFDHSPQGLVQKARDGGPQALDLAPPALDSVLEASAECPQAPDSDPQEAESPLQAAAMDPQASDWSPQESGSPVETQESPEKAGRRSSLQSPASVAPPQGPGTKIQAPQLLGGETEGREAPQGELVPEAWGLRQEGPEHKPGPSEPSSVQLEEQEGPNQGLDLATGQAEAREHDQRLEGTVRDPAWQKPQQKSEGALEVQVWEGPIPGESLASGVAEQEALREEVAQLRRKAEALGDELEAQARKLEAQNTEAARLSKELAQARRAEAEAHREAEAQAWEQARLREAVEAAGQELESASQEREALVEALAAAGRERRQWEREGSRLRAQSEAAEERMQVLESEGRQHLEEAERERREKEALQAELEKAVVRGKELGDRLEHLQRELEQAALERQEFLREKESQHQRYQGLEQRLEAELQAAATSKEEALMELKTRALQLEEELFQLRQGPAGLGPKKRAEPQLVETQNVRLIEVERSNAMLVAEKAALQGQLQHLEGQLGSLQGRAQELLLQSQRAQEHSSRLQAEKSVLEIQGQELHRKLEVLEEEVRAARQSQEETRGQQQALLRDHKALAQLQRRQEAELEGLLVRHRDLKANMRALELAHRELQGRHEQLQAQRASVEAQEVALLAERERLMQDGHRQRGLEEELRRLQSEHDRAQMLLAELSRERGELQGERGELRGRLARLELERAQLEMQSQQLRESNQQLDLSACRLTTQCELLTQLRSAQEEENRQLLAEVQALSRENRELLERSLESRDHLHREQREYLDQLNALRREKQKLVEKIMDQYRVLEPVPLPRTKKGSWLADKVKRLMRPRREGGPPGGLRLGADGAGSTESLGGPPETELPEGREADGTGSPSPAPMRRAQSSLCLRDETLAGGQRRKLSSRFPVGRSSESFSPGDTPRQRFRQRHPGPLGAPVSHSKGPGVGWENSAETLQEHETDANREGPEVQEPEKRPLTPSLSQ
UniProt Q9UNL2: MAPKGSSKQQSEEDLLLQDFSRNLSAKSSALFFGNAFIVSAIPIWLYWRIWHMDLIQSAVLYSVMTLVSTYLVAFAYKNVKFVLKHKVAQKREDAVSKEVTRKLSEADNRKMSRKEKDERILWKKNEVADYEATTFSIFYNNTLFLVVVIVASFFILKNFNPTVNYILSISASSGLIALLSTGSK
UniProt Q9H6X4: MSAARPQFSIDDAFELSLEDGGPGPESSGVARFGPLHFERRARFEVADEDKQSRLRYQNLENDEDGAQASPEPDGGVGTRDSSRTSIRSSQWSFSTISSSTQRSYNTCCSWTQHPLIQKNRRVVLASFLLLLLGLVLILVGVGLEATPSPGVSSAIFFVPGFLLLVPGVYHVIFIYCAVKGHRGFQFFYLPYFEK
UniProt Q02083: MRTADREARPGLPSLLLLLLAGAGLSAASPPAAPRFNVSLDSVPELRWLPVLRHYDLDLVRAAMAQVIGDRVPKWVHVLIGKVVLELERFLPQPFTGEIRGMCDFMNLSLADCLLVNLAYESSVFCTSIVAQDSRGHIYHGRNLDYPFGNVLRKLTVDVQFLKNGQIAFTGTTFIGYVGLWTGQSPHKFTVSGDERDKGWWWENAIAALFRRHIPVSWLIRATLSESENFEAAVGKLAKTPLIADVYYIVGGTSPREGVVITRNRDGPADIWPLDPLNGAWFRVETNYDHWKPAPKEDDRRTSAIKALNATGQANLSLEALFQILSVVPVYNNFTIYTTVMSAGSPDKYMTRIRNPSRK

Compound: Nc1ncnc2c1ncn2[C@@H]1O[C@H](COP(=O)(O)OP(=O)(O)NP(=O)(O)O)[C@@H](O)[C@H]1O [adenylyl imidodiphosphate]
Assay: NP40-soluble protein abundance relative to vehicle (solubility fold change) (ratio); higher = more soluble protein in presence of AMP-PNP
Summary of the method: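 Jurkat crude lysate prepared with a Dounce homogeniser was treated at eight concentrations spanning 0.1 to 10 mM, 10 min at room temperature then 3 min at 37 °C. Solubilisation with 0.8% NP40 and benzonase and ultracentrifugation preceded TMT labelling of the supernatant for LC-MS/MS. Fold change against the detergent-processed vehicle was determined per replicate from vsn-normalised intensities, across three independent experiments.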

| Target | NP40-soluble protein abundance (concentration: 1mM) | NP40-soluble protein abundance (concentration: 2mM) | NP40-soluble protein abundance (concentration: 4mM) | NP40-soluble protein abundance (concentration: 6mM) | NP40-soluble protein abundance (concentration: 8mM) | NP40-soluble protein abundance (concentration: 10mM) |
| --- | --- | --- | --- | --- | --- | --- |
| C9JJV1 and related entries (UniProt Q9Y5U2) | 1.01 ± 0.013 | 1.04 ± 0.076 | 1.01 ± 0.01 | 0.968 ± 0.047 | 0.951 ± 0.048 | 0.968 ± 0.068 |
| A8MXP9 and related entries (UniProt P43243) | 1.03 ± 0.033 | 1.07 ± 0.016 | 1.05 ± 0.016 | 1.07 ± 0.042 | 1.08 ± 0.025 | 1.1 ± 0.028 |
| B4E2Q0 and related entries (UniProt P98194) | 0.996 ± 0.07 | 0.946 ± 0.043 | 0.995 ± 0.036 | 0.962 ± 0.03 | 0.975 ± 0.017 | 0.953 ± 0.02 |
| B1AMT0 and related entries (UniProt Q8N3U4) | 0.939 ± 0.06 | 0.861 ± 0.051 | 0.93 ± 0.019 | 0.966 ± 0.076 | 0.975 ± 0.036 | 0.931 ± 0.028 |
| C9JRJ5 and related entries (UniProt Q9UGP4) | 1.07 ± 0.047 | 1.13 ± 0.12 | 1.049 ± 0.0098 | 1.01 ± 0.048 | 1.01 ± 0.033 | 1.03 ± 0.035 |
| C9J5X1 and related entries (UniProt P08069) | 0.999 ± 0.02 | 1.01 ± 0.044 | 0.997 ± 0.044 | 0.993 ± 0.029 | 0.973 ± 0.023 | 0.9879 ± 0.0068 |
| B5MCS2 and related entries (UniProt Q8WTS6) | 0.93 ± 0.076 | 0.946 ± 0.039 | 0.946 ± 0.043 | 0.954 ± 0.032 | 0.957 ± 0.022 | 0.936 ± 0.042 |
| C9J0E4 and related entries (UniProt P01040) | 1 ± 0.013 | 1.03 ± 0.032 | 1.018 ± 0.0088 | 0.997 ± 0.02 | 1.04 ± 0.096 | 1.01 ± 0.016 |
| C9IY68 and related entries (UniProt Q9BQ75) | 1 ± 0.05 | 1 ± 0.081 | 1.02 ± 0.069 | 1.06 ± 0.073 | 1.06 ± 0.095 | 1.09 ± 0.1 |
| B4DQT1 and related entries (UniProt Q7L5Y9) | 0.98 ± 0.03 | 0.984 ± 0.052 | 0.978 ± 0.037 | 0.929 ± 0.081 | 0.928 ± 0.086 | 0.943 ± 0.11 |
| B1AKL4 and related entries (UniProt Q9NRA8) | 1.03 ± 0.032 | 1.05 ± 0.033 | 1.03 ± 0.033 | 0.995 ± 0.047 | 0.97 ± 0.044 | 0.982 ± 0.013 |
| B4E107 and related entries (UniProt O95260) | 1.03 ± 0.02 | 1.04 ± 0.029 | 1.04 ± 0.015 | 1.01 ± 0.02 | 0.992 ± 0.015 | 1.01 ± 0.053 |
| C9JKQ2 and related entries (UniProt O43676) | 1.03 ± 0.03 | 1.01 ± 0.022 | 1.04 ± 0.037 | 0.998 ± 0.059 | 0.988 ± 0.048 | 1.02 ± 0.018 |
| C9J8B8 and related entries (UniProt Q969S8) | 0.9555 ± 0.00065 | 0.968 ± 0.044 | 0.944 ± 0.028 | 0.975 ± 0.027 | 0.9371 ± 0.0074 | 0.961 ± 0.024 |
| D6RGX2 and related entries (UniProt Q9NUQ7) | 0.988 ± 0.04 | 0.951 ± 0.1 | 0.969 ± 0.055 | 0.964 ± 0.017 | 0.989 ± 0.023 | 0.946 ± 0.035 |
| D4PHA4 and related entries (UniProt Q86WP2) | 0.999 ± 0.011 | 1.03 ± 0.026 | 0.992 ± 0.02 | 1.04 ± 0.1 | 1.01 ± 0.063 | 1.05 ± 0.054 |
| LIPT2 (UniProt A6NK58) | 0.961 ± 0.02 | 0.976 ± 0.014 | 0.958 ± 0.029 | 0.993 ± 0.027 | 0.994 ± 0.016 | 0.994 ± 0.022 |
| E5RFU2 and related entries (UniProt P34913) | 0.991 ± 0.019 | 0.96 ± 0.062 | 0.975 ± 0.037 | 0.941 ± 0.034 | 0.939 ± 0.023 | 0.927 ± 0.029 |
| CCDC88B (UniProt A6NC98) | 1.04 ± 0.018 | 1.06 ± 0.067 | 1.05 ± 0.046 | 0.99434 ± 0.00087 | 0.979 ± 0.036 | 1 ± 0.046 |
| B3KVK2 and related entries (UniProt P62873) | 0.978 ± 0.015 | 0.885 ± 0.06 | 0.885 ± 0.032 | 0.9272 ± 0.0078 | 0.9053 ± 0.0052 | 0.8791 ± 0.0035 |
| MIF4GD (UniProt A9UHW6) | 0.968 ± 0.045 | 0.9704 ± 0.0057 | 0.951 ± 0.034 | 0.938 ± 0.039 | 0.918 ± 0.032 | 0.905 ± 0.045 |
| C9JA28 and related entries (UniProt Q9UNL2) | 1.01 ± 0.033 | 0.99 ± 0.042 | 0.991 ± 0.02 | 1.05 ± 0.016 | 1.04 ± 0.015 | 1.03 ± 0.019 |
| D6RE75 and related entries (UniProt Q8NEZ3) | 0.993 ± 0.032 | 1.046 ± 0.0099 | 0.9868 ± 0.0082 | 0.967 ± 0.056 | 0.973 ± 0.064 | 0.973 ± 0.038 |
| B4E0E3 and related entries (UniProt Q9H6X4) | 0.989 ± 0.014 | 1.01 ± 0.033 | 0.989 ± 0.04 | 1.01 ± 0.025 | 0.9708 ± 0.0014 | 0.989 ± 0.023 |
| B4DVL2 and related entries (UniProt Q02083) | 0.993 ± 0.019 | 0.997 ± 0.013 | 1 ± 0.021 | 1.02 ± 0.011 | 1 ± 0.033 | 0.9934 ± 0.0063 |
| YDJC (UniProt A8MPS7) | 0.977 ± 0.0078 | 0.982 ± 0.024 | 0.993 ± 0.016 | 1 ± 0.0058 | 1.003 ± 0.0052 | 0.9793 ± 0.0049 |
| B4DDF4 and related entries (UniProt Q99439) | 1.02 ± 0.024 | 1.07 ± 0.074 | 0.999 ± 0.015 | 1.02 ± 0.012 | 0.979 ± 0.018 | 0.998 ± 0.076 |
| B7ZAX5 and related entries (UniProt Q01415) | 0.985 ± 0.027 | 0.971 ± 0.07 | 1.03 ± 0.024 | 1.03 ± 0.072 | 1.04 ± 0.081 | 1.04 ± 0.015 |
| C9JJ19 and related entries (UniProt P82930) | 1.04 ± 0.015 | 1 ± 0.026 | 0.991 ± 0.067 | 0.974 ± 0.075 | 0.972 ± 0.055 | 0.979 ± 0.11 |
| C9JEX3 and related entries (UniProt Q13614) | 1 ± 0.012 | 0.9881 ± 0.003 | 0.988 ± 0.015 | 1.01 ± 0.042 | 0.98 ± 0.027 | 1.01 ± 0.016 |

Two entries from above, with bars between the fields:
Target | NP40-soluble protein abundance (concentration: 1mM) | NP40-soluble protein abundance (concentration: 2mM) | NP40-soluble protein abundance (concentration: 4mM) | NP40-soluble protein abundance (concentration: 6mM) | NP40-soluble protein abundance (concentration: 8mM) | NP40-soluble protein abundance (concentration: 10mM)
D6RGX2 and related entries (UniProt Q9NUQ7) | 0.988 ± 0.04 | 0.951 ± 0.1 | 0.969 ± 0.055 | 0.964 ± 0.017 | 0.989 ± 0.023 | 0.946 ± 0.035
E5RFU2 and related entries (UniProt P34913) | 0.991 ± 0.019 | 0.96 ± 0.062 | 0.975 ± 0.037 | 0.941 ± 0.034 | 0.939 ± 0.023 | 0.927 ± 0.029
